Experimental data reported in PMC10879859.
No constants are given. Whether binding was seen depends on the method and setting. In cells and extracts the contact can be indirect. Some entries that bind do so weakly or less than the wild type.

The chains behind the UniProt entries cited, without tags or fusion partners.
UniProt O14983: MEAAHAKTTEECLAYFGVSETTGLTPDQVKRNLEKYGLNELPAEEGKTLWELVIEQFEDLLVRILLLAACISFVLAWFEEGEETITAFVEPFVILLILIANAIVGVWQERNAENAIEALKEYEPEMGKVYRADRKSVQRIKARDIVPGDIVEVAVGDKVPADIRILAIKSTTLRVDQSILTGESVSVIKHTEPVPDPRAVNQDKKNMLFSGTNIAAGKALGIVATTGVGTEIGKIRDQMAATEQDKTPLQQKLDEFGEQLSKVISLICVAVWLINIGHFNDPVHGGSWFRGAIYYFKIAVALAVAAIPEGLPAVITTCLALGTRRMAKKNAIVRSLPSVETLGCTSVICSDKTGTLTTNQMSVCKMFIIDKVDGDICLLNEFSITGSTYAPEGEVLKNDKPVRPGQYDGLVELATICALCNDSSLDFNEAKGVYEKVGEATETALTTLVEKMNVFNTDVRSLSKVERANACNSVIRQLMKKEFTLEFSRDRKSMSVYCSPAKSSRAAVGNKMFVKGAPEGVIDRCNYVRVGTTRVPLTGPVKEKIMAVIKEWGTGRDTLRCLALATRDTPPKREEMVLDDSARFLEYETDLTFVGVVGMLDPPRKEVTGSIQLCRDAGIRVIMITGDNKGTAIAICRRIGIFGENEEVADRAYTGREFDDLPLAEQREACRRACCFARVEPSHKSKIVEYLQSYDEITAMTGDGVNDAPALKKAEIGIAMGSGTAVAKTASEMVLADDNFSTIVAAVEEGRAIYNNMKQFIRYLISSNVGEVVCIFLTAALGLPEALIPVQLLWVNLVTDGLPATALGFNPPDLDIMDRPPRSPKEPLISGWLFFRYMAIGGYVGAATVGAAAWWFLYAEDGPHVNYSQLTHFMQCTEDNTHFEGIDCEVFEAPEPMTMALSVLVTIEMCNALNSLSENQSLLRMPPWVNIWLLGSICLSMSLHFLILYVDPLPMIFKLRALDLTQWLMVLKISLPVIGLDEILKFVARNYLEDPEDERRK
UniProt P29144: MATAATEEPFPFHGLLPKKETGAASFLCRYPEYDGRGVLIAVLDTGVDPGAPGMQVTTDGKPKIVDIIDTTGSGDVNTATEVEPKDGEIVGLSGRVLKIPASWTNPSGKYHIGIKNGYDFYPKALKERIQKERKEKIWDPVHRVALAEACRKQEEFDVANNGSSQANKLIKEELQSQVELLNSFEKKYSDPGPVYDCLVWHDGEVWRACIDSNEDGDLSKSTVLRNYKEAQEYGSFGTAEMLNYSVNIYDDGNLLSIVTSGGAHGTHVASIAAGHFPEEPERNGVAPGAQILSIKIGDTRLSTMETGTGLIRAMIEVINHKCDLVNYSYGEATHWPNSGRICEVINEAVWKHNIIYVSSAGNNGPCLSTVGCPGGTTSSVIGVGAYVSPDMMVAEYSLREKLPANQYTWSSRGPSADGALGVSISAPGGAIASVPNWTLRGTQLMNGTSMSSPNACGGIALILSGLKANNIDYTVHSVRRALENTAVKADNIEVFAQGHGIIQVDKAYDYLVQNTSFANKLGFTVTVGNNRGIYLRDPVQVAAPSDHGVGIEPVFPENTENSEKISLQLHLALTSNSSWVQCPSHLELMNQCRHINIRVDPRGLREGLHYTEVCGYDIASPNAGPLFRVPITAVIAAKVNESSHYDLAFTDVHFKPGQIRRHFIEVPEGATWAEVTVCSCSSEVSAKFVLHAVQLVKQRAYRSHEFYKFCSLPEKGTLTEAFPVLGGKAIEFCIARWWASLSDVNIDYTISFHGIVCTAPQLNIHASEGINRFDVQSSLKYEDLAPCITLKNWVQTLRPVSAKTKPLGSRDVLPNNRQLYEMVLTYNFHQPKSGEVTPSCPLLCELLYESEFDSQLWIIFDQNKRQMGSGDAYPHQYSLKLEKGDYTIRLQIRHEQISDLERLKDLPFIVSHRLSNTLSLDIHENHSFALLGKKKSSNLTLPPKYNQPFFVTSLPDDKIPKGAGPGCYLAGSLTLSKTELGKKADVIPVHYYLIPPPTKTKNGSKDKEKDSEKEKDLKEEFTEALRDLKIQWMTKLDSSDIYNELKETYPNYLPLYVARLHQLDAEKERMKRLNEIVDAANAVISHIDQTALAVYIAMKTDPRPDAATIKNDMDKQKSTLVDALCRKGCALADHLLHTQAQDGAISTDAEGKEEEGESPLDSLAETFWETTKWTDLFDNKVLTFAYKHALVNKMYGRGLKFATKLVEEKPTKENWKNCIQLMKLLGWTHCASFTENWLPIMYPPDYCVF
UniProt Q8R429: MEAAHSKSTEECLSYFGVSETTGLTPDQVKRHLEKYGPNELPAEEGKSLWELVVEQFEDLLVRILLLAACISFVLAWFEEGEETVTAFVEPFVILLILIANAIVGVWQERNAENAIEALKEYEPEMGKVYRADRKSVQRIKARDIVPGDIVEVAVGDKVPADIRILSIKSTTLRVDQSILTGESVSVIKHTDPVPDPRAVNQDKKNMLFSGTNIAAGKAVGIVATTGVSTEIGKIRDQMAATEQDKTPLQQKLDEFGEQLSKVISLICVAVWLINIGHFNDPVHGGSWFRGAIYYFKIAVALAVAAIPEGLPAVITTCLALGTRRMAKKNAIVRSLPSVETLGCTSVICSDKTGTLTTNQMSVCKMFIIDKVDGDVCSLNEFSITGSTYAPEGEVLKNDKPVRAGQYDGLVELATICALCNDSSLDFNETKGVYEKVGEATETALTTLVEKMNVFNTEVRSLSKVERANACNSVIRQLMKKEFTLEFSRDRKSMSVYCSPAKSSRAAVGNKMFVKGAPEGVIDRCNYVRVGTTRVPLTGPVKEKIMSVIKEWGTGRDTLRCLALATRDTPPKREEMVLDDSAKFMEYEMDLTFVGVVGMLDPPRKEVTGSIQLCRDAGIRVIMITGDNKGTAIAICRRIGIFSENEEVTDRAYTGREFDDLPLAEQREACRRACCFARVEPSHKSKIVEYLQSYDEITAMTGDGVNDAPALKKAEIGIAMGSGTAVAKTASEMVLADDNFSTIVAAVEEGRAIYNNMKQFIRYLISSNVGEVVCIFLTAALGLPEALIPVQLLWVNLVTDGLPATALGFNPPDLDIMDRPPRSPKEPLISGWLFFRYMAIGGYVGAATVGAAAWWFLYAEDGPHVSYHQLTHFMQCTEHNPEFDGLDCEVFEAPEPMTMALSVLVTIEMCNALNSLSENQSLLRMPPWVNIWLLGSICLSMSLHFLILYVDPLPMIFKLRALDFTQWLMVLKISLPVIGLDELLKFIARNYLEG

What was measured:
[1] = biological target: sarcoendoplasmic reticulum Ca^2+ ATPase (SERCA1) (human (endogenous in 293T)) (UniProt O14983); experiment: proximity ligation; Duolink in situ PLA on fixed, permeabilised 293T cells, endogenous proteins; wild-type cells, with TPP2-, ATF6-, IRE1-, PERK- or CEPT1-knockout cells and TG, XeC, PC or CCTα-KDEL treatments as comparisons
[2] = biological target: Tripeptidyl peptidase II (TPP2) (human (endogenous in 293T)) (UniProt P29144); experiment: as above
[3] = biological target: sarcoendoplasmic reticulum Ca^2+ ATPase (SERCA1) (human (endogenous in 293T)) (UniProt O14983); experiment: proximity ligation; Duolink in situ PLA on TPP2 knockout 293T cells (binding lost or barely left; restored by ectopic TPP2, TPP2 S449A/T, or by TG, PC or CCTα-KDEL as named)
[4] = biological target: sarcoendoplasmic reticulum Ca^2+ ATPase (SERCA1) (human (endogenous in 293T)) (UniProt O14983); experiment: as above; remark: listed apart in the source
[5] = biological target: sarcoendoplasmic reticulum Ca^2+ ATPase (SERCA1), mouse (mouse (endogenous in hippocampal neurons and hippocampus)) (UniProt Q8R429); experiment: proximity ligation; Duolink in situ PLA on DIV10 TPP2 knockout hippocampal neurons of female mice (binding lost or barely left; reversed by TG 5 μM 5 h or PC)
[6] = biological target: sarcoendoplasmic reticulum Ca^2+ ATPase (SERCA1), mouse (mouse (endogenous in hippocampal neurons and hippocampus)) (UniProt Q8R429); experiment: condition: only in TPP2 knockout neurons of female mice; proximity ligation; Duolink in situ PLA on DIV10 TPP2 knockout hippocampal neurons of female mice (binding lost or barely left; reversed by TG 5 μM 5 h or PC)
[7] = biological target: sarcoendoplasmic reticulum Ca^2+ ATPase (SERCA1), mouse (mouse (endogenous in hippocampal neurons and hippocampus)) (UniProt Q8R429); experiment: proximity ligation; Duolink in situ PLA on DIV10 mouse primary hippocampal neurons, endogenous proteins; wild-type neurons, female shown, with TPP2 knockout and male neurons as comparisons

With “phospholamban (PLN) (from UniProt P26678 1-52)” the binding [1] was “binds”, the binding [2] was “binds” and the binding [3] was “binds weakly”. The binding [4] was “no binding (condition: in TPP2 knockout 293T cells)”.

B1: phospholamban (PLN), mouse (protein, UniProt P61014 1-52)
chain: MEKVQYLTRSAIRRASTIEMPQQARQNLQNLFINFCLILICLLLICIIVMLL
B1 was tested, and the binding [5] was “binds weakly”, the binding [6] was “no binding” and the binding [7] was “binds”.
